For the series, the target named is YY1 (Mus musculus) (UniProt Q00899). Briefly: binding assay. To be noted: ChIP-qPCR in mES cells; decreased vs wild type, p=0.0048; residual binding at additional CCAT motifs; protein in cells; protein details: endogenous, V6.5 mES cells; variant of Etv4 promoter wild type.

Sequences of proteins named here, by UniProt entry; tags and fusion partners are left off.
UniProt Q00899, whole entry: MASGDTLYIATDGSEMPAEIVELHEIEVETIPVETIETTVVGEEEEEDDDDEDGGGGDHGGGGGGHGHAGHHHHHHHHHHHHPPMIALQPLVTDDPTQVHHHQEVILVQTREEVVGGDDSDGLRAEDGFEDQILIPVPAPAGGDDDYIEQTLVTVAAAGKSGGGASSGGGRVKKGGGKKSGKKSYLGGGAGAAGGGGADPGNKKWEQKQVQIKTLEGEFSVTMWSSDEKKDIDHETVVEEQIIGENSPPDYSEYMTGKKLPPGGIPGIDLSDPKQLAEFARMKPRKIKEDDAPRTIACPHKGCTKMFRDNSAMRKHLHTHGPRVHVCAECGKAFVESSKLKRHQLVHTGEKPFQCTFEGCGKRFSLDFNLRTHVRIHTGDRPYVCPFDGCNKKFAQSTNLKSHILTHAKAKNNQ

Construct, isoform or probe ends are uncertain for at least one entry. Results from cells or extracts need not show a direct contact. A weaker result is weaker than the reference pair of the same experiment.

For the sequence “ACTGTGTTTTCA (double strand) [Etv4 promoter YY1 motif deletion]”, the binding result is “binds more weakly”.

Source of the values: patent publication US11873496.
